For one molecule, binding results are on record in PMC4345284.

Results are given in words; binding and its absence hold for the method and conditions named. In cells and extracts the contact can be indirect. Binding can be weak; no strength is given.

This assay concerns the target STAG2/SA-2 (chicken (endogenous in DT40)). Briefly: cross-linking; in situ: isolated mitotic chromosomes of wild-type DT40 cross-linked with 30-fold weight excess of BS3, 2 h on ice; micrococcal nuclease, 2 M NaCl extraction (scaffold fraction), SDS-PAGE, SCX, targeted mass spectrometry with an inclusion list.

B1: CENP-M (protein, UniProt Q1T7B9 1-177)
chain: MAVLRPFDKLPELNSATILLVGAEGGPQQQLAEAMLREKKDFNINIHLASSLPLPSERDHLRPRIDLIAFVIDIKSKYSLKNVQASLAYVDVRFFLGKVCFLVTGVGRANNCSVEMNAIWKLGEDYCSPVIFCELELEGIRVATAQRLLRMLQICAGRVPGVSALYFSLLMRNSAGD
Take B1: the binding result is “binds”.
